About 13,000 (3.2%) of roughly 400,000 compounds were called active. Inconclusive means that the source gave no clear call. Such entries were picked first, then a sample of the others. Calls follow the shape of the dose curve; as a rule, active = well fitted cell-killing curve with a large enough effect; inconclusive = small, poorly fitted or top-dose-only effect, or effect the other way; inactive = flat fitted curve, though single readings scatter. Potencies of inconclusive entries are doubtful fits and often do not repeat.
assay: qHTS assay for MDR1-selective chemotherapeutics: Primary screen using the drug-selected MDR subline cells KB-V1; conditions: KB-V1 MDR cells viability, CellTiter-Glo, 72 h; activity change, negative = cytotoxicity: at 46.1 µM (top of the series); also: nearly all actives have a fitted effect of over 60% in size
Procedure, shortened: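 Compound-treated KB-V1 multidrug-resistant cells, 72 h, 37 degrees C; viability by CellTiter-Glo. Fitted qHTS curves give the values.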
% is scaled to controls: 0 for no effect and ±100 for the full control effect; potency is read from the fitted curve at half-maximal effect.

SMILES | activity change, negative = cytotoxicity | Potency
COc1ccc2[nH]c(=O)c(C(c3nnnn3C3CCCCC3)N3CCN(C)CC3)cc2c1 (stereo not drawn) | inconclusive: -13% | 
Cc1c(NC(=O)CSc2nnc(-c3cccnc3)n2N)c(=O)n(-c2ccccc2)n1C | inconclusive: 32.7% | 
O=C(NCCC1=CCCCC1)C1CCN(S(=O)(=O)c2ccc(Br)s2)CC1 |  | active: 16.4 µM
CCCCn1c(/N=C/c2ccccc2NS(=O)(=O)c2ccc(C)cc2)nc2ccccc21 |  | inconclusive: 25.9 µM [cytotoxic, single point]
CCc1nc2ccc(C(=O)N3CCN(C)CC3)cn2c1N(C)CCC(C)C |  | inconclusive: 18.4 µM [cytotoxic, partial curve]
Cc1ccc(-n2ncc3c(=O)n(CC(=O)Nc4cccc(Cl)c4)cnc32)cc1C | inactive: -7.89% | 
CC1C(=O)N2CCCc3cc(NC(=O)c4ccccc4C(F)(F)F)cc1c32 (stereo not drawn) | inactive: -12% | 
COc1cc([N+](=O)[O-])cc(/C=N/NC(=O)CSc2ccccn2)c1O |  | inconclusive: 29.1 µM [cytotoxic, single point]
O=C(CSC(=S)N1CCCC1)N/N=C/c1c(O)[nH]c(=S)[nH]c1=O |  | inconclusive: 29.1 µM [rising, single point]
CCS(=O)(=O)N1CCN(c2ccc([N+](=O)[O-])c(NC(C)c3ccccc3)c2)CC1 (stereo not drawn) |  | inconclusive: 1.84 µM [cytotoxic, partial curve, poor fit]
CC1CCCC(C)N1C(=O)COC(=O)CNC(=O)c1ccc(Cl)cc1Cl (stereo not drawn) | inactive: 4.96% | 
COc1cc(C(=O)Nc2ccc3c(c2)OCCO3)ccc1-n1cnnn1 |  | inconclusive: 20.6 µM [cytotoxic, single point]
Cc1ccccc1NS(=O)(=O)c1ccc(OCC(=O)NCc2ccco2)cc1 |  | inconclusive: 20.6 µM [cytotoxic, single point]
Cc1ccc(CNC(=O)Nc2ccc(F)cc2)n1C |  | inconclusive: 16.4 µM [rising, single point]
COc1ccc(S(=O)(=O)N2CCN(C(=O)c3cc(C)nc4ccccc34)CC2)cc1OC | inactive: 12.8% | 
COC(=O)N1C(=O)[C@](Cc2ccccc2)(c2ccccc2)N1C(=O)OC |  | inconclusive: 29.1 µM [rising, single point]
Cn1nnnc1SCCNCc1ccc(OCc2ccc(Cl)cc2)cc1 |  | inconclusive: 8.2 µM [cytotoxic, partial curve]
CCc1ccc(CNC(=O)CN2C(=O)CCn3nc(-c4cn(C)c5ccccc45)cc32)cc1 | inactive: -3.93% | 
C#CCN(C[C@@H]1[C@@H](OC(=O)NCc2ccc(OC)c(OC)c2)[C@@H](OC(=O)NCc2ccc(OC)c(OC)c2)Cn2c(=O)n(CCCCCC)c(=O)n21)S(=O)(=O)c1ccc(C)cc1 |  | inconclusive: 0.58 µM [rising, full curve, poor fit]
COc1ccccc1-c1nnc(SCC(=O)c2ccc(F)cc2)n1-c1ccccc1 |  | inconclusive: 14.6 µM [cytotoxic, partial curve]
CC(C)(C)C(=O)NCCCc1nc2ccccc2n1CCCOc1ccc(Cl)cc1 |  | active: 16.4 µM
COc1ccc(S(=O)(=O)N(CC(=O)NCc2cccnc2)c2ccc(C)cc2)cc1OC |  | inconclusive: 29.1 µM [cytotoxic, single point]

2 entries from above in another layout:
COc1cc(C(=O)Nc2ccc3c(c2)OCCO3)ccc1-n1cnnn1
  Potency: inconclusive: 20.6 µM [cytotoxic, single point]
Cc1ccccc1NS(=O)(=O)c1ccc(OCC(=O)NCc2ccco2)cc1
  Potency: inconclusive: 20.6 µM [cytotoxic, single point]

(list continues)

SMILES | activity change, negative = cytotoxicity | Potency
Cc1cc(S(=O)(=O)N2CCC(NC(=O)C34CC5CC(CC(C5)C3)C4)CC2)ccc1-n1cnnn1 |  | active: 9.2 µM
Cc1cccc(NC(=S)NC(=O)c2cc(-c3ccccc3)nc3ccccc23)c1 | inactive: -1.05% | 
COc1cccc(C(=O)Nc2cc(NC(=O)c3ccco3)ccc2OC)c1 |  | inconclusive: 20.6 µM [cytotoxic, partial curve]
Cc1ccc(Cc2c(-c3ccc(C#N)cc3)nc3ccc(Br)cn23)cc1 | inactive: -25% | 
CCn1c(COc2cccc(C)c2C)nnc1SCC(=O)N1CCN(c2ccc(OC)cc2)CC1 |  | active: 2.31 µM
O=C(O)/C=C/c1ccc2c(-c3ccccc3)onc2c1 | inactive: -29.9% | 
C(=C\c1ccccc1)/CN1CCN(C(CCc2ccccc2)c2nnnn2-c2ccc3c(c2)OCCO3)CC1 (stereo not drawn) | inactive: 0% | 
Cc1oc(-c2cccc(Cl)c2)nc1CN1CCC(C(=O)NCCc2ccc(Cl)cc2)CC1 | inactive: 4.11% | 
Cc1ccc(CN2CC(N3CC=CC3)CS2(=O)=O)cc1 (stereo not drawn) |  | inconclusive: 29.1 µM [cytotoxic, single point]
COc1cccc(C(c2nnnn2Cc2ccccc2)N2CCN(C3CCCC3)CC2)c1OC (stereo not drawn) |  | inconclusive: 32.6 µM [cytotoxic, single point]
CC1=C(C(=O)N(C(C)C)C(C)C)CC(CC(=O)NC2CCCCC2)C(=O)N1Cc1ccc(F)cc1 (stereo not drawn) | inactive: 14% | 
O=C(Nc1ccc(F)c(Cl)c1)c1ccc2sc([C@@H]3O[C@H](CO)[C@H](O)[C@H](O)[C@H]3O)nc2c1 | inactive: -1.05% | 
COc1ccc(C(=O)Nc2ccc(N3CCOCC3)c(C(F)(F)F)c2)cc1OC |  | inconclusive: 3.26 µM [cytotoxic, full curve]
CN(C)C(=O)COC(=O)c1cccnc1Nc1ccccc1F |  | active: 16.4 µM
COc1cc(-c2nc(S(=O)(=O)c3ccc(C)cc3)c(N(C)C)o2)cc(OC)c1OC |  | inconclusive: 11.6 µM [cytotoxic, partial curve, poor fit]
COC(=O)N1c2ccccc2C=Cc2ccccc21 |  | inconclusive: 29.1 µM [cytotoxic, partial curve, poor fit]
COc1cccc(N(CC(=O)NCCSc2ccccn2)S(=O)(=O)c2ccccc2)c1 |  | inconclusive: 29.1 µM [cytotoxic, single point]
CC(C)CN(CC(C)C)S(=O)(=O)N1CCC(C(=O)NCc2ccc(F)cc2)CC1 |  | inconclusive: 2.91 µM [cytotoxic, partial curve]
O[C@H]1CN(CC2CCCCC2)[C@@H](c2ccc(Cl)cc2)C[C@@H]1n1cc(C2CC2)nn1 |  | inconclusive: 29.1 µM [cytotoxic, single point]
O=c1c2ccccc2nc(/C=C/c2cc(Br)ccc2O)n1CCO |  | inconclusive: 25.9 µM [cytotoxic, single point]
COc1ccc(S(=O)(=O)CCC(=O)N2CCN(c3ccc([N+](=O)[O-])cc3)CC2)cc1 |  | inconclusive: 2.31 µM [cytotoxic, full curve, poor fit]
